# Reference: patent US20240316146A1, “METHODS OF REDUCING NEUROPATHY AND NEUROPATHIC SYMPTOMS AND TREATING CANCER” (Bexion Pharmaceuticals Inc., priority 2021, published 2024)
# “And” between values parts separate entries of the source, which are not always exact repeats. Equal entries are not always repeated. This continues a long series; more values of the same kind are listed elsewhere.
# How the values were obtained:
# [1] = Body weights, Study 1; type: in vivo, mouse
# [2] = Body weights, Study 2; type: in vivo, mouse
# Description: Body Weights: The mice were weighed daily starting 1 day prior to treatment through day 9.
# [3] = test system: mouse oxaliplatin model of chemotherapy-induced neuropathy; assay: Static mechanical (tactile) allodynia, von Frey filaments, Study 1; type: in vivo; details: oxaliplatin 10 mg/kg IP day 0 (+vehicle, BXQ-350 20 mg/kg IP or pregabalin 30 mg/kg IP)
# Procedure: 60 adult male C57/BL6 mice (Charles River), 6-7 weeks of age, were housed in groups of 5 in Perspex cages, in a controlled environment of constant temperature and humidity (temperature: 21±1° C., light: dark cycle of 12:12 hours), with food and water available ad libitum. Animals were allowed to recover from transportation for at least one week before commencing experiments.
# Static mechanical tactile allodynia: Static mechanical (tactile) allodynia was assessed by measurement of withdrawal threshold using calibrated (force; g) von-Frey monofilaments (Touch-Test Sensory Evaluator; Scientific Marketing Associates) applied to the plantar surface of the left hind-paw. The animals were placed in individual Perspex boxes on a raised metal mesh for 30-40 min before the test to habituate. A series of graduated von Frey hairs (0.07, 0.16, 0.4, 0.6 and 1 g) were applied in sequence with a protocol of 1 sec on 1 sec off repeated 10 times. Each hair was applied perpendicularly to the center of the ventral surface of the paw until it bent slightly. The force applied to the hind-paw of the animal to induce 5 responses out of 10 trials was recorded as paw withdrawal threshold (PWT) 50%.
# Warm vials of BQX-350 were brought to room temperature and reconstituted with 4 mL water for injection via syringe. The vials were gently agitated and/or vortexed for 15-20 sec and allowed to sit at room temp for 5 mins. The rehydrated solution contained 2.2 mg/mL SapC (8.8 mg SapC per vial). About […] of the formulation was injected to achieve a target dose of 20 mg/kg in each mouse. Pregabalin was reconstituted in water and injected to achieve a target dose of 30 mg/kg in each mouse.
# A two-way repeated measures ANOVA with ‘treatment’ as a between subjects effect, and ‘day’ as a within subjects effect was used (using GraphPad Prism version 9.0 for Windows, GraphPad Software, San Diego California USA), followed by Dunnett's multi comparisons test. Data is presented as mean±SEM.
# [4] = Group B Oxaliplatin/Vehicle, D 5, individual mice
# [5] = Group B Oxaliplatin/Vehicle, D 6, individual mice
# [6] = Group B Oxaliplatin/Vehicle, D 7, individual mice
# [7] = Group B Oxaliplatin/Vehicle, D 8, individual mice
# [8] = Group B Oxaliplatin/Vehicle, D 9, individual mice
smiles,measurement,setting,value
"O=C([O-])C(=O)[O-].[NH-][C@@H]1CCCC[C@H]1[NH-].[Pt+4] (relative stereo) [Oxaliplatin, cis-[(1R,2R)-1,2-cyclohexanediamine-N,N′][oxalato(2)-O,O′] platinum]",Individual body weights,"[1]; Group B Oxaliplatin/Vehicle, D 0, individual mice",21.5 g and 22.8 g and 22.4 g and 20.6 g and 22.7 g and 20.5 g and 25.2 g and 25.4 g and 23.0 g and 22.5 g and 23.3 g and 24.5 g
same,Individual body weights,"[1]; Group B Oxaliplatin/Vehicle, D 1, individual mice",21.1 g (2×) and 22.2 g and 24.4 g and 20.5 g and 22.7 g and 19.7 g and 24.3 g and 24.5 g and 22.1 g and 21.8 g and 23.4 g
same,Individual body weights,"[1]; Group B Oxaliplatin/Vehicle, D 2, individual mice",21.5 g and 22.3 g and 22.5 g and 20.9 g and 23.7 g and 20.5 g and 24.6 g and 24.9 g and 22.8 g and 22.0 g and 21.9 g and 23.4 g
same,Individual body weights,"[1]; Group B Oxaliplatin/Vehicle, D 3, individual mice",21.3 g and 22.9 g and 22.4 g (2×) and 20.7 g and 23.8 g and 20.4 g and 24.9 g and 24.2 g and 23.2 g and 22.0 g and 23.0 g
same,Individual body weights,[1]; [4],20.7 g and 23.5 g (2×) and 22.8 g and 21.0 g and 20.6 g and 25.4 g and 23.7 g and 23.2 g (2×) and 22.1 g and 22.3 g
same,Individual body weights,"[1]; Group B Oxaliplatin/Vehicle, D −1, individual mice",20.5 g and 22.1 g and 21.5 g and 19.9 g and 22.0 g and 19.8 g and 24.3 g and 24.5 g and 21.9 g and 21.3 g and 22.6 g and 23.3 g
same,Individual body weights,[1]; [5],20.9 g and 22.8 g (2×) and 22.4 g and 20.7 g and 23.6 g and 21.3 g and 25.6 g and 24.4 g and 23.0 g and 22.3 g and 23.8 g
same,Individual body weights,[1]; [6],21.8 g and 23.6 g and 23.1 g and 21.5 g and 24.5 g and 21.6 g and 26.4 g and 25.1 g and 23.8 g and 22.7 g and 23.5 g and 24.7 g
same,Individual body weights,[1]; [7],22.1 g and 23.1 g (2×) and 23.0 g and 21.0 g and 24.0 g and 20.9 g and 25.7 g and 24.9 g and 23.6 g and 22.6 g and 24.4 g
same,Individual body weights,[1]; [8],22.4 g and 23.6 g and 23.1 g and 21.2 g and 24.8 g and 21.6 g and 26.4 g and 25.3 g and 24.1 g and 23.5 g and 23.3 g and 24.5 g
same,Individual body weights,[2]; [4],25.0 g and 23.5 g and 23.3 g and 22.4 g and 23.0 g and 20.6 g and 24.9 g
same,Individual body weights,[2]; [5],25.3 g (2×) and 23.7 g (2×) and 23.2 g and 23.0 g and 23.9 g and 23.1 g and 22.9 g and 24.0 g and 21.8 g and 25.4 g
same,Individual body weights,[2]; [6],25.5 g and 23.6 g and 23.4 g (2×) and 22.7 g and 25.7 g and 24.5 g (2×) and 23.3 g and 23.8 g and 21.5 g and 25.8 g
same,Individual body weights,[2]; [7],25.1 g and 23.3 g and 23.4 g (2×) and 21.5 g and 25.3 g and 23.6 g and 23.0 g and 22.7 g and 24.1 g and 21.2 g and 25.4 g
same,Individual body weights,[2]; [8],25.3 g and 23.5 g and 23.4 g and 22.2 g and 25.5 g and 24.0 g and 23.7 g and 23.3 g and 23.1 g and 24.5 g and 22.0 g and 25.7 g
CC(C)C[C@H](CN)CC(=O)O [Pregabalin],Individual body weights,"[1]; Group E Pregabalin/Oxaliplatin, pregabalin target dose 30 mg/kg, D 0, individual mice, 30 mg/kg",25.4 g and 23.8 g and 21.1 g and 22.3 g and 20.6 g and 21.7 g and 23.3 g and 22.6 g and 22.2 g and 24.5 g and 24.0 g and 23.9 g
same,Individual body weights,"[1]; Group E Pregabalin/Oxaliplatin, pregabalin target dose 30 mg/kg, D 1, individual mice, 30 mg/kg",23.9 g and 22.7 g and 20.5 g and 21.3 g (2×) and 19.7 g and 20.8 g and 22.2 g and 21.4 g and 23.7 g and 22.9 g and 22.8 g
same,Individual body weights,"[1]; Group E Pregabalin/Oxaliplatin, pregabalin target dose 30 mg/kg, D 2, individual mice, 30 mg/kg",24.8 g and 23.4 g and 20.8 g and 21.6 g and 20.0 g and 20.6 g and 22.3 g and 21.7 g and 21.3 g and 24.0 g and 23.3 g and 23.1 g
same,Individual body weights,"[1]; Group E Pregabalin/Oxaliplatin, pregabalin target dose 30 mg/kg, D 3, individual mice, 30 mg/kg",24.7 g and 23.1 g and 20.8 g (2×) and 19.5 g and 20.0 g and 21.9 g and 21.8 g and 21.0 g and 24.0 g and 23.2 g and 22.7 g
same,Individual body weights,"[1]; Group E Pregabalin/Oxaliplatin, pregabalin target dose 30 mg/kg, D 4, individual mice, 30 mg/kg",24.0 g and 22.5 g and 20.8 g (3×) and 20.3 g and 18.9 g and 19.5 g and 21.4 g and 23.2 g and 22.8 g and 22.4 g
same,Individual body weights,"[1]; Group E Pregabalin/Oxaliplatin, pregabalin target dose 30 mg/kg, D 5, individual mice, 30 mg/kg",24.8 g and 23.5 g and 21.6 g and 20.3 g and 19.0 g and 19.2 g and 22.0 g and 21.5 g and 21.2 g and 24.2 g and 22.2 g and 23.2 g
same,Individual body weights,"[1]; Group E Pregabalin/Oxaliplatin, pregabalin target dose 30 mg/kg, D 7, individual mice, 30 mg/kg",26.0 g and 24.8 g and 22.2 g and 21.7 g and 20.3 g and 20.2 g and 23.2 g and 23.5 g and 22.7 g and 25.6 g and 24.3 g and 24.5 g
same,Individual body weights,"[1]; Group E Pregabalin/Oxaliplatin, pregabalin target dose 30 mg/kg, D 8, individual mice, 30 mg/kg",25.3 g and 24.0 g and 22.2 g and 21.6 g and 20.0 g and 20.8 g and 23.1 g and 23.2 g and 22.6 g and 25.1 g and 24.5 g and 24.1 g
same,Individual body weights,"[1]; Group E Pregabalin/Oxaliplatin, pregabalin target dose 30 mg/kg, D 9, individual mice, 30 mg/kg",26.4 g and 24.8 g (3×) and 23.1 g and 22.5 g and 21.2 g and 20.9 g and 23.8 g and 24.0 g and 23.4 g and 25.6 g
same,Individual Paw Withdrawal Threshold 50% (von Frey filaments),"[3]; Day 3, individual mice",0.4 g
same,Individual Paw Withdrawal Threshold 50% (von Frey filaments),"[3]; Day 5, individual mice",1.0 g (7×) and 0.6 g (3×) and 0.4 g (2×)
same,Individual Paw Withdrawal Threshold 50% (von Frey filaments),"[3]; Day 7, individual mice",1.0 g (6×) and 0.4 g (4×) and 0.6 g (2×)
same,Individual Paw Withdrawal Threshold 50% (von Frey filaments),"[3]; Day 9, individual mice",1.0 g (9×) and 0.4 g and 0.6 g (2×)
same,Individual body weights,"[2]; Group E Oxaliplatin/Pregabalin, D 5, individual mice",25.1 g (2×) and 26.0 g and 23.8 g (2×) and 24.5 g (2×) and 23.0 g
same,Individual body weights,"[2]; Group E Oxaliplatin/Pregabalin, D 6, individual mice",21.8 g and 23.0 g (2×) and 27.1 g and 25.5 g (2×) and 23.5 g and 24.3 g and 23.9 g and 25.0 g and 22.8 g and 25.1 g
same,Individual body weights,"[2]; Group E Oxaliplatin/Pregabalin, D 7, individual mice",22.0 g and 23.9 g and 28.0 g and 23.8 g and 25.9 g (2×) and 24.0 g and 24.9 g and 24.6 g and 25.5 g and 23.6 g and 25.2 g
same,Individual body weights,"[2]; Group E Oxaliplatin/Pregabalin, D 8, individual mice",22.2 g and 23.3 g and 27.2 g and 23.2 g and 25.6 g and 25.4 g and 23.8 g and 24.6 g and 24.1 g and 24.8 g and 23.1 g and 24.5 g
same,Individual body weights,"[2]; Group E Oxaliplatin/Pregabalin, D 9, individual mice",22.1 g and 24.0 g and 27.8 g and 23.7 g and 25.6 g and 25.8 g and 24.3 g and 25.0 g and 24.8 g and 25.1 g and 23.5 g and 24.9 g
